# According to the supplement of paper PMC3334620:
# Whole data set: some 33,000 sequences, median “E-score (-0.5 to 0.5)” near -8e-05, cut for the highest 2% near 0.23. The list shows a part of the results.
# Target: T1, Nrg2 (UniProt P38082)
# T1 sequence: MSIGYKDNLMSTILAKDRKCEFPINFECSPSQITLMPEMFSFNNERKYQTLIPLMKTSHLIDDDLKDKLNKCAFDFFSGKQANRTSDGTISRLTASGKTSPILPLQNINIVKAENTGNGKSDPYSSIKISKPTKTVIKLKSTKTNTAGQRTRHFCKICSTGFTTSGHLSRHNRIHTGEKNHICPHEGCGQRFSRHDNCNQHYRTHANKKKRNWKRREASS
# Assay: PBM E-score (8-mer binding enrichment) (E-score (-0.5 to 0.5)); higher = stronger / more preferred TF binding
# Settings: protein concentration: 100 nM; construct: GST-full length
# Protocol: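 Universal 'all 10-mer' protein binding microarrays (Agilent AMADID 015681) probed with GST-tagged S. cerevisiae TFs (full-length or DBD) made by in vitro transcription/translation (PURExpress), about 100-200 nM. Bound TF was detected with fluorescent anti-GST. Each ungapped 8-mer (which stands for itself and its reverse complement) is scored by the PBM enrichment score (E-score), a modified Wilcoxon-Mann-Whitney statistic from -0.5 to +0.5, computed with the Universal PBM Analysis Suite. Scale: above 0.35 generally sequence-specific binding.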
row,Sequence,PBM E-score
1,AGAACAAC,-0.028
2,CGACACTA,0.0165
3,CATTTATA,0.0834
4,GCCGTGGA,-0.105
5,ATTATTTC,0.207
6,AAGTAATT,0.0546
7,AGGCCGTG,0.00953
8,CACAACGC,0.0775
9,CCTCCCAG,-0.282
10,CTATCCAG,-0.0187
11,AGTAGCTA,0.0901
12,GAATGCGA,-0.0117
13,GGTAGCAC,-0.259
14,GTTTCGGA,-0.0272
15,AGCATACA,-0.0259
16,CTCAAGCC,-0.254
17,CGGTGGAG,-0.163
18,CGGCCGAA,0.0577
19,GAGAGAGC,-0.171
20,AGCCTTAT,-0.0742
21,GACGGACA,0.21
22,GGGATCAA,-0.0876
23,ATTGTCTC,0.0123
24,TACTGTAA,0.0495
25,CGCCATGA,-0.0296

row,Sequence,PBM E-score
1,TGAAACCA,0.157
2,CAACTCGA,0.0207
3,CTATAGTA,0.152
4,AGTAGGCG,0.0694
5,ACGACTGA,0.035
6,ATTTCAAA,0.00814
7,CCTCCGCC,-0.142
8,GGTGGGAA,-0.0571
9,AATAGCTG,0.031
10,CACGCGCA,-0.0169
11,CGAGATGC,-0.0121
12,ATCCTTGA,-0.00132
13,ATATCAGG,0.0243
14,AATTTCCG,0.206
15,ACCCTCAA,-0.128
16,GGGACCCA,-0.00781
17,AGACGTGA,0.108
18,CCGATAGG,0.0212
19,AACTGAGC,-0.0554
20,ATCAATGG,-0.0247
21,CGTCATGC,0.0265
22,GTTTGTGA,-0.00935
23,AGACATGG,0.0758
24,AGGAGAAT,0.0168
25,ACTGCCAA,0.0418

row,Sequence,PBM E-score
1,AGTTGATC,0.137
2,AGAATATC,0.153
3,ACGAACGA,0.0396
4,AAGGTCTC,-0.174
5,ATCTAAAC,-0.091
6,GCAACGAA,0.187
7,AACCCCTG,0.055
8,TTCGCAAA,0.185
9,AATTGATG,0.195
10,ATGACGTC,0.195
11,AACAGGTT,-0.129
12,CAATCAGC,-0.0303
13,AGTTCATG,0.216
14,CATGCGCC,0.0619
15,AATTGCAA,0.0259
16,CCCAGCGC,-0.0665
17,AGGTACTG,-0.105
18,GGGACCAC,0.146
19,AGCCGATG,-0.00831
20,AAATTAAC,0.198
21,ACGGAGAT,-0.0589
22,ATTAGACA,0.0113
23,TTTCGAAA,0.178
24,TATTACGA,0.146
25,CCTCGTTC,-0.0458

# Quoted from above (two entries):
row,Sequence,PBM E-score
19,AGCCGATG,-0.00831
20,AAATTAAC,0.198

# Next part.

row,Sequence,PBM E-score
1,AATCCCAA,0.0283
2,ATCAAACA,0.185
3,ATATTGAT,0.221
4,CGGGGCCA,0.034
5,CACACCTA,0.014
6,ACGCATAT,0.098
7,CAATTATG,0.0379
8,ACTGGCAT,-0.108
9,CGGCTCAG,0.0506
10,CATGATAA,0.0937
11,TGTAGACA,0.00823
12,ATCGTGTA,-0.0402
13,CTCGGAAC,0.0666
14,ACGCATAG,0.0951
15,CTGTTCTA,-0.104
16,GCATGTCC,-0.0894
17,ACGCATCT,-0.0297
18,CAGTCGCA,-0.13
19,ACCGAATC,-0.0562
20,ACAAGCGC,0.0708
21,CTGCCACC,-0.338
22,ATTTTTGA,0.0108
23,AAGTGGTA,-0.0491
24,CCTCACCA,-0.0117
25,AAGAAATG,0.183

row,Sequence,PBM E-score
1,AGGGCTCG,0.0217
2,ACCGAGGG,-0.308
3,CCCGGGTC,-0.0843
4,AGCGCGGC,0.0579
5,CGGGTAAA,0.117
6,CTACTCTA,-0.0109
7,ATTTGGTA,0.081
8,GATCTGAC,0.0527
9,CGATTAAA,0.0468
10,AGCGTTCC,0.0239
11,CTATTGAG,0.148
12,GATTAATC,0.116
13,CATCCTCG,-0.0167
14,GTCGCTAA,-0.0617
15,ATATTATG,0.304
16,ATATGCAA,0.0594
17,AACTATTA,0.125
18,CTGGTCCC,-0.0433
19,CCAACGAG,-0.13
20,ACTTAATG,0.0989
21,ATCGAGAC,-0.0993
22,ATCGTGCA,0.0864
23,AGCCATAT,-0.0547
24,CTGGACTA,-0.129
25,CAGGTTCA,-0.0574

# 3 records picked at random from the list so far, as already listed:
row,Sequence,PBM E-score
18,CTGGTCCC,-0.0433
23,AGCCATAT,-0.0547
11,CTATTGAG,0.148

# Continued.

row,Sequence,PBM E-score
1,GCGATCTA,0.128
2,CGTGTGAA,-0.0465
3,CCAAGGAG,-0.0878
4,GTCTCCAC,-0.0329
5,AAGGCAGA,-0.092
6,CTCTGGTC,-0.153
7,CGATCCTC,-0.12
8,TCCATAAA,0.0921
9,ACGTACTC,-0.004
10,CCCTATAA,-0.113
11,AGATAATC,-0.0178
12,CAGCGATA,-0.0715
13,GATCCAGA,0.187
14,CCACGCCG,-0.154
15,AATGGTTA,0.00607
16,AAGATTCA,0.0877
17,AAGACTAT,-0.0854
18,AAGGGACT,0.123
19,CAGCCTAA,-0.187
20,GACACAGA,0.0495
21,ACGGACAC,0.051
22,CTCCTCGA,0.0152
23,CTTCGCGC,0.232
24,CAACACGG,0.104
25,CCAACTAC,0.0973

row,Sequence,PBM E-score
1,TATTAATA,0.152
2,CCATCGAG,0.21
3,CCGCTCAG,-0.0837
4,GAGTGCGA,-0.0302
5,CAACATAC,0.0785
6,ACTTCACA,-0.0488
7,CCCAACGC,0.0482
8,CTTAAGCC,-0.0732
9,CAGAGCAG,-0.0155
10,ACAAGAAT,0.0779
11,AATTGTAC,0.123
12,ACGGCCCG,-0.1
13,ATGCGTTG,-0.0299
14,ACTCTCTC,-0.0585
15,GACTTAAA,-0.156
16,AGTATACA,0.152
17,ACTGTTTG,0.0928
18,ACTTTGGA,-0.0192
19,CTGGGAAC,0.191
20,GCATCCAC,0.0455
21,GGTTTAAC,0.0156
22,ACTGTCCG,0.0479
